Source: patent US11173446B2, “Process for removal of acid gases from a fluid stream” (BASF SE, priority 2017, dated 2021)

Assay: Relative CO2 absorption rates in a twin stirred cell (Example 6)
Assay type: physicochemical
Conditions: aqueous solution with 5 wt.-% piperazine and 30 wt.-% amine; 50° C.

Which results are given for `CC(C)(C)NCC(O)CO` (centres unmarked) [TBAPD, 3-(tert-butylamino)propane-1,2-diol]?
absorption rate, comparison in words: significantly higher than that of the solutions comprising MDEA and DMAPD; maximum loading, comparison in words: higher than that of the solutions comprising MDEA and DMAPD
